In patent US6228373A (priority 1995, dated 2001):
HELM strings list residues between dots; [ac] is acetyl, [am] amide, other brackets name non-standard units.

Experiment: general procedure: peptide synthesis; Tentagel S trt-Pro-Fmoc (Rapp Polymer), 0.18 mmol/g; Fmoc-amino acid pentafluorophenyl esters with HOBT
Conditions: whole synthesis, scale 0.20 mmol

For PEPTIDE1{G.P.C.C.P.G}$$$$V2.0, the isolated mass was 84 mg.
